About 13,000 (3.2%) of roughly 400,000 compounds were called active. The inconclusive results got no clear call from the source; some entries with a clear call stand among them for comparison. The call rests on the fitted dose curve; in most records, active means well fitted cell-killing curve with a large enough effect; inconclusive means small, poorly fitted or top-dose-only effect, or effect the other way; inactive means flat fitted curve, though single readings scatter. Potencies beside an inconclusive call are fits to weak or partial responses and may not hold up.
assay: qHTS assay for MDR1-selective chemotherapeutics: Primary screen using the drug-selected MDR subline cells KB-V1; conditions: KB-V1 MDR cells viability, CellTiter-Glo, 72 h; activity change, negative = cytotoxicity: at 46.1 µM (top of the series); further: nearly all actives have a fitted effect of over 60% in size
Summary of the method: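 KB-V1 cells (P-gp-expressing MDR subline of KB-3-1) in phenol-red-free DMEM with 10% FBS were exposed to library compounds over a concentration series for 72 h at 37 degrees C. Viability read by CellTiter-Glo luminescence; concentration-effect curves fitted after normalization.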
On the % scale 0 is the no-effect control and ±100 the full control effect; potency means the concentration at half of the fitted maximal effect.

With `COc1ccc(CCNC(=O)c2cc3c(s2)-c2ccccc2OC3)cc1OC` as the molecule, how does the Potency read?
The Potency was “inactive”.

With `COc1ccc(OC)c(-c2csc(NC(=O)COC(=O)c3ccc(NC(=O)CC#N)cc3)n2)c1` as the molecule, how does the Potency read?
The Potency was “inactive”.

With `COc1ccccc1N1CCN(C(=O)c2c(C)oc3ncn(CC(C)C)c(=O)c23)CC1` as the molecule, how does the Potency read?
Its Potency is “inactive”.

With `COc1ccccc1N1CCN(C(=O)CSc2nc3ccccc3nc2N2CCCCC2)CC1` as the molecule, how does the Potency read?
Its Potency is “inactive”.

Which Potency does the source give for `CC1=C(C(N)=O)C(c2ccc(C)cc2)n2nc(SCc3ccccc3F)nc2N1` (stereo not drawn) here?
Its Potency is inconclusive: 6.51 µM [rising, partial curve, poor fit].

Which Potency does the source give for `CCOC(=O)C1=CCC(c2cccc(Cl)c2)N(S(=O)(=O)c2ccc(C)cc2)C1` (stereo not drawn) here?
The Potency was inconclusive: 29.1 µM [cytotoxic, partial curve, poor fit].

Which Potency does the source give for `CCC(C)NC(=O)C1CCN(S(=O)(=O)c2cc([N+](=O)[O-])ccc2Cl)CC1` (stereo not drawn) here?
The Potency was “inactive”.

Which Potency does the source give for `CCOC(=O)c1cccc(NC(=O)c2cc(S(=O)(=O)N3CCCC(C)C3)cn2C)c1` (stereo not drawn) here?
The Potency was inconclusive: 29.1 µM [cytotoxic, single point].

With `N#Cc1ccsc1NC(=O)CCc1ccccc1` as the molecule, how does the Potency read?
Its Potency is inconclusive: 11.6 µM [cytotoxic, partial curve].

For `O=S(=O)(c1ccc(F)cc1)c1nc(-c2ccco2)oc1Nc1ccccc1`, which Potency is on record?
Its Potency is inconclusive: 18.4 µM [cytotoxic, partial curve, poor fit].

Which Potency does the source give for `CN(C(=O)CSc1nnc(-c2ccc(Cl)cc2)n1C)C1CCS(=O)(=O)C1` (stereo not drawn) here?
The Potency was inconclusive: 25.9 µM [rising, partial curve, poor fit].

With `CCOc1ccc(-n2c(N)c(-c3nc4ccccc4[nH]3)sc2=S)cc1` as the molecule, how does the Potency read?
Its Potency is “inactive”.

Which Potency does the source give for `Cc1ccc2cc(C#N)c(N3CCCN(C(=O)C4CCCO4)CC3)nc2c1C` (stereo not drawn) here?
Its Potency is inconclusive: 25.9 µM [cytotoxic, single point].

For `O=[N+]([O-])c1ccccc1Nc1ccc(O)cc1`, which Potency is on record?
Its Potency is inconclusive: 11.6 µM [cytotoxic, partial curve, poor fit].

With `O=C(NCCOc1ccccc1)C1=CC=CN2CCS(=O)(=O)N=C12` as the molecule, how does the Potency read?
The Potency was inconclusive: 14.6 µM [rising, partial curve, poor fit].

With `C[C@H](CO)N1C[C@H](C)[C@@H](CN(C)Cc2ccc(C(=O)O)cc2)Oc2c(NS(=O)(=O)c3cccs3)cccc2C1=O` as the molecule, how does the Potency read?
Its Potency is “inactive”.

For `Cc1ccc2cccc(Oc3ccc([N+](=O)[O-])cc3[N+](=O)[O-])c2n1`, which Potency is on record?
Its Potency is inconclusive: 9.2 µM [cytotoxic, partial curve, poor fit].

Which Potency does the source give for `Cc1cc(C)cc(NC2=C(c3ccccc3)C(=O)c3ccccc32)c1` here?
The Potency was inconclusive: 18.4 µM [cytotoxic, single point].

With `C[C@@H]1CCCCO[C@H](CN(C)C(=O)Nc2cccc3ccccc23)[C@@H](C)CN([C@H](C)CO)C(=O)c2cc(N(C)C)ccc2O1` as the molecule, how does the Potency read?
Its Potency is inconclusive: 7.31 µM [cytotoxic, partial curve].

Which Potency does the source give for `COc1cccc(NC(=O)N2CCc3nc(NCc4cccc(Oc5ccccc5)c4)ncc3C2)c1` here?
The Potency was inconclusive: 14.6 µM [cytotoxic, partial curve].

Which Potency does the source give for `COc1cccc(CNC(=O)CSc2nnc(C)c3c(C)n(-c4ccccc4)nc23)c1OC` here?
The Potency was “inactive”.

Which Potency does the source give for `CCOc1ncccc1C(=O)OC(C)C(=O)Nc1ccc(CC)cc1` (stereo not drawn) here?
Its Potency is inconclusive: 25.9 µM [cytotoxic, partial curve, poor fit].

For `COc1ccccc1/C=N/NC(=O)COCC(=O)N/N=C/c1ccccc1OC`, which Potency is on record?
Its Potency is “inactive”.

Which Potency does the source give for `NS(=O)(=O)c1ccc(CCNc2ncnc3c2c(-c2ccccc2)cn3-c2ccc(F)cc2)cc1` here?
The Potency was inconclusive: 29.1 µM [cytotoxic, single point].

For `O=C(CCCNS(=O)(=O)c1cccs1)N1CCN(c2cccc(Cl)c2)CC1`, which Potency is on record?
The Potency was inconclusive: 16.4 µM [cytotoxic, single point].

For `O=C(NC(c1ccccc1)c1ccsc1)C1CCN(CCOc2ccc(Cl)cc2Cl)CC1` (stereo not drawn), which Potency is on record?
Its Potency is “inactive”.

Which Potency does the source give for `CC(=O)N1CCN(S(=O)(=O)c2cccc(C(=O)OCC(=O)NC(=O)c3cccn3C)c2)CC1` here?
The Potency was inconclusive: 18.4 µM [rising, single point].

Which Potency does the source give for `CCCCc1c(-c2ccccc2OC)ncn1CCc1ccccc1Cl` here?
Its Potency is active: 18.4 µM.

With `CC1=C(C(=O)Nc2ccccc2)C(c2ccccc2)N2C(=O)CSC2=N1` (stereo not drawn) as the molecule, how does the Potency read?
Its Potency is inconclusive: 29.1 µM [rising, single point].

For `O=C1NC[C@@H](CCCCN2CCN(CCc3ccccc3)C(=O)C2=O)N(Cc2ccccc2)C1=O`, which Potency is on record?
Its Potency is “inactive”.

With `O=C(Nc1ccc([N+](=O)[O-])cc1Cl)c1cccc([N+](=O)[O-])c1` as the molecule, how does the Potency read?
The Potency was “inactive”.

Which activity change, negative = cytotoxicity does the source give for `Cc1ccc2nsnc2c1NC(=O)CCc1ccccc1` here?
Its activity change, negative = cytotoxicity is inconclusive: -9.96%.

Which Potency does the source give for `Nc1nonc1-n1nnc(C(=O)N/N=C/c2ccc(F)cc2)c1-c1cccs1` here?
The Potency was “inactive”.

For `COc1ccc(S(=O)(=O)N2CCOCC2)cc1NC(=O)c1ccc2c(c1)OCCO2`, which Potency is on record?
The Potency was inconclusive: 18.4 µM [cytotoxic, partial curve, poor fit].

With `CSc1nsc(SC)c1C(=O)N1CCN(S(=O)(=O)c2ccc(C)cc2)C1C` (stereo not drawn) as the molecule, how does the Potency read?
The Potency was inconclusive: 18.4 µM [cytotoxic, single point].

Which Potency does the source give for `CCOC(=O)C1=CCN(S(=O)(=O)c2ccccc2F)C1c1ccc(Cl)c(Cl)c1` (stereo not drawn) here?
The Potency was “inactive”.

With `CC(=O)C1CCC2C3CCC4=CC(=O)CCC4(C)C3(F)C(O)CC12C` (stereo not drawn) as the molecule, how does the Potency read?
Its Potency is active: 5.17 µM.

With `Cc1ccc2nc3ccc(N4CCN(C)CC4)nn3c(=O)c2c1` as the molecule, how does the Potency read?
The Potency was inconclusive: 0.231 µM [cytotoxic, partial curve, poor fit].

Which Potency does the source give for `COc1ccc(-c2nn(-c3ccccc3)cc2/C=C/C(=O)NCCCn2ccnc2)cc1OC` here?
The Potency was “inactive”.

For `CCOC(=O)c1c(NC(=O)c2cccc(N3C(=O)CCC3=O)c2)sc(C)c1C`, which Potency is on record?
The Potency was active: 10.3 µM.

With `COC(=O)c1nn(-c2ccc(OC)cc2)c(=O)cc1NN` as the molecule, how does the Potency read?
The Potency was inconclusive: 29.1 µM [rising, partial curve, poor fit].

Which Potency does the source give for `CCCCOc1ccc(CNC(=O)c2ccc(-c3nc(CN4CCc5ccccc54)c(C)o3)cc2)cc1` here?
The Potency was inconclusive: 5.8 µM [cytotoxic, partial curve].

Which Potency does the source give for `COc1cc(/C=N/NC(=O)c2cccc([N+](=O)[O-])c2)cc(OC)c1O` here?
Its Potency is “inactive”.

Reference: PubChem BioAssay AID1347076 (National Center for Advancing Translational Sciences (NCATS), 2019)
